doi:10.1101/2023.08.16.553474
These are yes or no findings as the source states them, for the method shown. In cells and extracts the contact can be indirect. Some results given as binding are weak or reduced against the parent protein; the word gives no strength. Values belong to the molecule of their own block, whether it stands above or below them.

Amino acid sequences for entries named in this document (tags omitted).
UniProt P04198: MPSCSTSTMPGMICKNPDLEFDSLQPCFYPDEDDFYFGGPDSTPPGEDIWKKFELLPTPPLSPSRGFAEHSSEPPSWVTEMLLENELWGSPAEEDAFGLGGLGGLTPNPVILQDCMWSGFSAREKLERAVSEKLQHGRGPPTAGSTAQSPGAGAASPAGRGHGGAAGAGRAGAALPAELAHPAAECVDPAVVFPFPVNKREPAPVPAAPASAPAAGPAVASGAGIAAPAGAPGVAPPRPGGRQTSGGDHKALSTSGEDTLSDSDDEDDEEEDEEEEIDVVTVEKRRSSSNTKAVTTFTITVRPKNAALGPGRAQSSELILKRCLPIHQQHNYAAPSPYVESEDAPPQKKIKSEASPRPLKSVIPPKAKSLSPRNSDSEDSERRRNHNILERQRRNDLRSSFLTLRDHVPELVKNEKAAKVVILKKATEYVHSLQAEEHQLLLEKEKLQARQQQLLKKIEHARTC
UniProt Q9NQT4: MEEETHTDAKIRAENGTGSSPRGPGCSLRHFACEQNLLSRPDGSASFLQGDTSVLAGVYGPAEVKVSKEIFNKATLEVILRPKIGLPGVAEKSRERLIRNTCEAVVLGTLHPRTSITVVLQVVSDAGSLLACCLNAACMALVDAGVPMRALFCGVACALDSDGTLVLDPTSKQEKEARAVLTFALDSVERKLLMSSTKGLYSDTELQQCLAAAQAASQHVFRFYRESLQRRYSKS
UniProt Q9Y4A5: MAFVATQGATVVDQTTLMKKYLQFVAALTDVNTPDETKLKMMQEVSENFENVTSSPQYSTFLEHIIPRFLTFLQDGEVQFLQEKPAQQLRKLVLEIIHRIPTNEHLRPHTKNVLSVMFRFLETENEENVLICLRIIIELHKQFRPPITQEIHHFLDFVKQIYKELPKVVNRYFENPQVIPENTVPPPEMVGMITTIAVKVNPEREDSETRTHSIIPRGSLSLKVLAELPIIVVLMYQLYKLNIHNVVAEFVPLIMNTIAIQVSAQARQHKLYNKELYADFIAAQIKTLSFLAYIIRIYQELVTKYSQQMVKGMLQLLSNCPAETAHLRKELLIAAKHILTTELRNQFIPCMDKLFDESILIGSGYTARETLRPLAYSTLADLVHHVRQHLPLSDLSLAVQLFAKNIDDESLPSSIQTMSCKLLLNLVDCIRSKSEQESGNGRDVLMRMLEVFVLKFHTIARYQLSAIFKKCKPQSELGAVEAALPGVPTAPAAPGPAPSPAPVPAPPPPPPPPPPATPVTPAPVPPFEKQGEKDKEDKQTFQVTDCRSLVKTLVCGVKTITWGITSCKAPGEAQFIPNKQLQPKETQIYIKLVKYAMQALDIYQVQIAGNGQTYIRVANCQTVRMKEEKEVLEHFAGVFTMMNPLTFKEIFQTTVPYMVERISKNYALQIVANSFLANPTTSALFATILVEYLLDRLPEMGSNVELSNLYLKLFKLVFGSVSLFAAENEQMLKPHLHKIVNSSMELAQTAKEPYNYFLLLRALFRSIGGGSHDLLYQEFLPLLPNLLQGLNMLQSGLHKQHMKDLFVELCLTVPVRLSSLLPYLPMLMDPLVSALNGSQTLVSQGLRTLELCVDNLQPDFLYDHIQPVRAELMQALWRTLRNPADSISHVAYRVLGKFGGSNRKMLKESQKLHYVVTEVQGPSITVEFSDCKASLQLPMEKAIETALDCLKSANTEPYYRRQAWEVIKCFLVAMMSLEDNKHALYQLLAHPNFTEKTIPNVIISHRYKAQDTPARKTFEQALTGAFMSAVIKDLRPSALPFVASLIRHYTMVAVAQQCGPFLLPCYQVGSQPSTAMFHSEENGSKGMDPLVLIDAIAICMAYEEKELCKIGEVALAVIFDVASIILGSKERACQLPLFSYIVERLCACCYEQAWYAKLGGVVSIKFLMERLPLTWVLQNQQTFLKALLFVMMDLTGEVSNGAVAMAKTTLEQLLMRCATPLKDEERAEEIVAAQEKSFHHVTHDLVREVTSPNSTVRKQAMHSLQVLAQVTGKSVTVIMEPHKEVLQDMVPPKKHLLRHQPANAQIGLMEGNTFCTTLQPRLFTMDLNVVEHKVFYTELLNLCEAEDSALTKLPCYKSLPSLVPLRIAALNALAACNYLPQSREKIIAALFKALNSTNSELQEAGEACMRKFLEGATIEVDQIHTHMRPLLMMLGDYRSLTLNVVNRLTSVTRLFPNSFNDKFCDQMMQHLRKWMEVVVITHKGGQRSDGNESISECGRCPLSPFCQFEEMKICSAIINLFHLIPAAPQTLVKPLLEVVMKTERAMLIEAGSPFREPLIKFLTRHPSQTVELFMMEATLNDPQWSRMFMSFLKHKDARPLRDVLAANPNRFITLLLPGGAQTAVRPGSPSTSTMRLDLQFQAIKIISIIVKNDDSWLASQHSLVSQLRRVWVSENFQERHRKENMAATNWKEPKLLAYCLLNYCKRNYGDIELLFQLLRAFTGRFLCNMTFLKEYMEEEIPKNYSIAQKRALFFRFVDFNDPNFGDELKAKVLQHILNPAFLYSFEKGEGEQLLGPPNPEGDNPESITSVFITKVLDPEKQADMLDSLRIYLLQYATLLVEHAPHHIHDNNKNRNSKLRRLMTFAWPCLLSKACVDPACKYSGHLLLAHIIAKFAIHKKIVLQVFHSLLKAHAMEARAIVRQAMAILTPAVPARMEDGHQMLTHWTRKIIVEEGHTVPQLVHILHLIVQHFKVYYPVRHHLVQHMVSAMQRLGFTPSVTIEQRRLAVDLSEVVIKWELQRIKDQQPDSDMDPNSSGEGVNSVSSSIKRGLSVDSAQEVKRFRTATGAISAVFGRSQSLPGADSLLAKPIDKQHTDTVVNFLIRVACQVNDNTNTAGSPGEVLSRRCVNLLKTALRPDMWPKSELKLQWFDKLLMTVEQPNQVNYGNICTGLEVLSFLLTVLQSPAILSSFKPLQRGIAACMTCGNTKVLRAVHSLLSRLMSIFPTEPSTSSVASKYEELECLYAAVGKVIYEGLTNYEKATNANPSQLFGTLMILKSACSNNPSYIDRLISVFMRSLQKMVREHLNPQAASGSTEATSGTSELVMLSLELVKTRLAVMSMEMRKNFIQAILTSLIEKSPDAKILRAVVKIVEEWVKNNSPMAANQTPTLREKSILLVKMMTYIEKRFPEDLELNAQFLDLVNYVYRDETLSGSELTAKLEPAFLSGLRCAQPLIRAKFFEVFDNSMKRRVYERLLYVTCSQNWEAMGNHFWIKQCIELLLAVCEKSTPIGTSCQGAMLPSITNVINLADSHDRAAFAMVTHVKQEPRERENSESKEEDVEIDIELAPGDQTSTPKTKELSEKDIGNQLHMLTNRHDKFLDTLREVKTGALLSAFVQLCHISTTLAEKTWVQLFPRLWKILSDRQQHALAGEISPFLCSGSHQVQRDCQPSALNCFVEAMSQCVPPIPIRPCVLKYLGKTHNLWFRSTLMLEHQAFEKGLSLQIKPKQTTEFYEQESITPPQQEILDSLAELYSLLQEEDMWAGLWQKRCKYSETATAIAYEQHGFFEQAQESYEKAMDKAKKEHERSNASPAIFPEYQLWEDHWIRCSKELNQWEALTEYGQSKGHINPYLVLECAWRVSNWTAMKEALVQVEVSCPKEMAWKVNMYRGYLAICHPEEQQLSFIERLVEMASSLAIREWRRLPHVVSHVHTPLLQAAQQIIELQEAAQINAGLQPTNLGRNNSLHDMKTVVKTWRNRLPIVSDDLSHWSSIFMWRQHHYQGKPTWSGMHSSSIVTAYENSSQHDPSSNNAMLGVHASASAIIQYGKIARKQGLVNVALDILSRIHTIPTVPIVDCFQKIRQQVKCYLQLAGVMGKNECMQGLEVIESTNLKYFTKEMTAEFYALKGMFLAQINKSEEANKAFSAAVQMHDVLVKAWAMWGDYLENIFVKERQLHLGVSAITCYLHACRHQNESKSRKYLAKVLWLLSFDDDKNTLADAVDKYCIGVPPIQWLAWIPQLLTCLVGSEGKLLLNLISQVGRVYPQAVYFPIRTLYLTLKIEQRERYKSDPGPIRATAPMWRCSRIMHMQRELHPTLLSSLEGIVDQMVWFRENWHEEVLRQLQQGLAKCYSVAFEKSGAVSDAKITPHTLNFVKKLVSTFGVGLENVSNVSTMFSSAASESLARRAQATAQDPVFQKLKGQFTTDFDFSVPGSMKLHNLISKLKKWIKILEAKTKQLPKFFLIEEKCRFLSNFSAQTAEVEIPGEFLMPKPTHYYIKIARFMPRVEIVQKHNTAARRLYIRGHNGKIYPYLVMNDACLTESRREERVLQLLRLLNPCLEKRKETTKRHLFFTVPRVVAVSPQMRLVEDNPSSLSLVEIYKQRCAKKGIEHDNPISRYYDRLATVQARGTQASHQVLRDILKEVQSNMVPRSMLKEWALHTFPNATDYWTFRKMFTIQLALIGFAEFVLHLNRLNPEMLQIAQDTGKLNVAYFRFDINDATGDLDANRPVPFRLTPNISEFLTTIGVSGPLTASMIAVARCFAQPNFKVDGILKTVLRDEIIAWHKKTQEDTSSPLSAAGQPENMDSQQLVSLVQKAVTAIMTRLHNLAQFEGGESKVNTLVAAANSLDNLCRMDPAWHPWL
UniProt P61244: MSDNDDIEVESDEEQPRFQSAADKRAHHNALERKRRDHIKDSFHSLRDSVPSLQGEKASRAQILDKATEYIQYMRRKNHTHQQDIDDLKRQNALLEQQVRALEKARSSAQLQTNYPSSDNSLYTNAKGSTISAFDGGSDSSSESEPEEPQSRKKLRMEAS
UniProt Q02880: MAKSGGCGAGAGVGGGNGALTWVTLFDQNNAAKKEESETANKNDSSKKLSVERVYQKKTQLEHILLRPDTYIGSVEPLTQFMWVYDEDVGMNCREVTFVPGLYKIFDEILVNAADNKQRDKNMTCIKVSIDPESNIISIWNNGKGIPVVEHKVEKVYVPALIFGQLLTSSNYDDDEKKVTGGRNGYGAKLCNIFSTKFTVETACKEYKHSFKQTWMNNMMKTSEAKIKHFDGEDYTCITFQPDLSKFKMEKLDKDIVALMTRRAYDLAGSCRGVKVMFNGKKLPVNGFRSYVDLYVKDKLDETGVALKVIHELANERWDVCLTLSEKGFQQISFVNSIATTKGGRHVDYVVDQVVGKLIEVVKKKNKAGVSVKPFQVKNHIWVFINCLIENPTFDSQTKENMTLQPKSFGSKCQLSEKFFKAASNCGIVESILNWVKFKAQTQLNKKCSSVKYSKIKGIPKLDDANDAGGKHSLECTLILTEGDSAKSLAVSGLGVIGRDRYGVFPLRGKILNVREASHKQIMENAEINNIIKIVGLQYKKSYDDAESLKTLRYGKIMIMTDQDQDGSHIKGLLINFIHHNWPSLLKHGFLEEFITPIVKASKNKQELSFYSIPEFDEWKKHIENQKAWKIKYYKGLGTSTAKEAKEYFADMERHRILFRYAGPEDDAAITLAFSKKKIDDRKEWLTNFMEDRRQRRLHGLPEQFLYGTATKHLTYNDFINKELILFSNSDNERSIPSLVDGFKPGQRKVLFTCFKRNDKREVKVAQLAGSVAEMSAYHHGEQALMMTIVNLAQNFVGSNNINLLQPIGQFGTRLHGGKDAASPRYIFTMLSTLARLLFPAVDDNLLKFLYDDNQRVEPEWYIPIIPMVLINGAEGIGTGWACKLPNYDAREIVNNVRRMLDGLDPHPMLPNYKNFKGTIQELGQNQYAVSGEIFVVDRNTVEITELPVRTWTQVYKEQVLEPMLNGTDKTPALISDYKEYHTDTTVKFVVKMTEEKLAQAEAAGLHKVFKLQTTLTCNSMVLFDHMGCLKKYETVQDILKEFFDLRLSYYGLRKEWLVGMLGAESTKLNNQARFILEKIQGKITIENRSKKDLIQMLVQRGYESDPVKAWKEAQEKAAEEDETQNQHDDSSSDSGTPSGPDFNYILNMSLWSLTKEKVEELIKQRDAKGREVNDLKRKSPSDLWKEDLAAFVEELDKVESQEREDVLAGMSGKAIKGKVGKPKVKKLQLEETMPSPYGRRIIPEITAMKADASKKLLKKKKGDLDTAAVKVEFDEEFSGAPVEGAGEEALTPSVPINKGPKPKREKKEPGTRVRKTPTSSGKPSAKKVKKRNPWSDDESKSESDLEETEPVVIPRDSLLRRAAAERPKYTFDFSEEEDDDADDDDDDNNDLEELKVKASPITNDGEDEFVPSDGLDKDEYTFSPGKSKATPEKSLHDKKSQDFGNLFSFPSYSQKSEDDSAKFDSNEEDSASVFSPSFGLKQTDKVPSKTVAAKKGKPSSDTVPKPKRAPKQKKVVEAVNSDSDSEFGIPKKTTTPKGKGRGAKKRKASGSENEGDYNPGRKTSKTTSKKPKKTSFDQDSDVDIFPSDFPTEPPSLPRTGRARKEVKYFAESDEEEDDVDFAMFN

Assays:
[1] = biological target: MYCN (human (endogenous in IMR-32 and IMR-5)) (UniProt P04198); test: co-IP
[2] = biological target: MYCN (human (endogenous in IMR-32 and IMR-5)) (UniProt P04198); test: proximity ligation
[3] = biological target: MYCN (human (endogenous in IMR-32 and IMR-5)) (UniProt P04198); test: co-IP; remark: listed apart in the source
[4] = biological target: MYCN (human (endogenous in IMR-32 and IMR-5)) (UniProt P04198); test: co-IP; remark: listed apart in the source

Molecule: EXOSC5 AID (endogenous EXOSC5 fused to an auxin-inducible degron) (from UniProt Q9NQT4 1-235)
binding [1]: binds

Molecule: TRRAP (from UniProt Q9Y4A5 1-3859)
binding [1]: binds | binding [2]: binds

Molecule: ZFC3H1 (from UniProt O60293 1-1989)
binding [1]: no binding

B1: ZCCHC8 (protein, UniProt Q6NZY4 1-707)
chain: MAAEVYFGDLELFEPFDHPEESIPKPVHTRFKDDDGDEEDENGVGDAELRERLRQCEETIEQLRAENQELKRKLNILTRPSGILVNDTKLDGPILQILFMNNAISKQYHQEIEEFVSNLVKRFEEQQKNDVEKTSFNLLPQPSSIVLEEDHKVEESCAIKNNKEAFSVVGSVLYFTNFCLDKLGQPLLNENPQLSEGWEIPKYHQVFSHIVSLEGQEIQVKAKRPKPHCFNCGSEEHQMKDCPMPRNAARISEKRKEYMDACGEANNQNFQQRYHAEEVEERFGRFKPGVISEELQDALGVTDKSLPPFIYRMRQLGYPPGWLKEAELENSGLALYDGKDGTDGETEVGEIQQNKSVTYDLSKLVNYPGFNISTPRGIPDEWRIFGSIPMQACQQKDVFANYLTSNFQAPGVKSGNKRSSSHSSPGSPKKQKNESNSAGSPADMELDSDMEVPHGSQSSESFQFQPPLPPDTPPLPRGTPPPVFTPPLPKGTPPLTPSDSPQTRTASGAVDEDALTLEELEEQQRRIWAALEQAESVNSDSDVPVDTPLTGNSVASSPCPNELDLPVPEGKTSEKQTLDEPEVPEIFTKKSEAGHASSPDSEVTSLCQKEKAELAPVNTEGALLDNGSVVPNCDISNGGSQKLFPADTSPSTATKIHSPIPDMSKFATGITPFEFENMAESTGMYLRIRSLLKNSPRNQQKNKKASE
binding [1]: binds | binding [3]: binds | binding [4]: binds

B3: PABPN1 (protein, UniProt Q86U42 1-306)
chain: MAAAAAAAAAAGAAGGRGSGPGRRRHLVPGAGGEAGEGAPGGAGDYGNGLESEELEPEELLLEPEPEPEPEEEPPRPRAPPGAPGPGPGSGAPGSQEEEEEPGLVEGDPGDGAIEDPELEAIKARVREMEEEAEKLKELQNEVEKQMNMSPPPGNAGPVIMSIEEKMEADARSIYVGNVDYGATAEELEAHFHGCGSVNRVTILCDKFSGHPKGFAYIEFSDKESVRTSLALDESLFRGRQIKVIPKRTNRPGISTTDRGFPRARYRARTTNYNSSRSRFYSGFNSRPRGRVYRGRARATSWYSPY
binding [1]: no binding

The remaining lines, values ahead:

binding [2]: binds
Molecule: KAT5 (TIP60) (from UniProt Q92993 1-513)

binding [1]: binds | binding [2]: binds
Molecule: MAX (from UniProt P61244 1-160)

binding [2]: binds
Molecule: TOP2B (from UniProt Q02880 1-1626)

binding [1]: binds | binding [3]: binds | binding [4]: binds
B2: RBM7 (protein, UniProt Q9Y580 1-266)
chain: MGAAAAEADRTLFVGNLETKVTEELLFELFHQAGPVIKVKIPKDKDGKPKQFAFVNFKHEVSVPYAMNLLNGIKLYGRPIKIQFRSGSSHAPQDVSLSYPQHHVGNSSPTSTSPSRYERTMDNMTSSAQIIQRSFSSPENFQRQAVMNSALRQMSYGGKFGSSPLDQSGFSPSVQSHSHSFNQSSSSQWRQGTPSSQRKVRMNSYPYLADRHYSREQRYTDHGSDHHYRGKRDDFFYEDRNHDDWSHDYDNRRDSSRDGKWRSSRH
